Experimental data taken from US20250304549A1, “HYDROXYAMIDE DERIVATIVE AND USE THEREOF” (SICHUAN HUIYU PHARMACEUTICAL CO., LTD., priority 2022, published 2025).

Experiments:
Format in all cases: cell-based
NCI-H1417 cells = assay: In vitro cell inhibition assay - H1417 cell proliferation (CellTiter-Glo); settings: Homo sapiens, H1417 small cell lung cancer cell proliferation
Experimental: 3. In Vitro Cell Inhibition Assay—H1417 Cell Proliferation
The inhibitory effect of the compounds on cell proliferation was assessed by detecting the number of viable cells using the CellTiter-Glo® reagent. NCI-H1417 cells in the logarithmic growth phase were collected and inoculated into transparent-bottom 96-well plates at a density of 7×10^3 cells/well with 100 μL of medium, and incubated at 37° C., 5% CO2 overnight. The compounds were sequentially diluted in a 5-fold concentration gradient with DMSO to obtain 8 different concentrations o. These were diluted with BEGM (containing 10% FBS) cell culture medium to obtain the compound working solution (2×), which was added to the cell supernatant at 100 μL per well. The incubation continued for 7 days at 37° C., 5% CO2. The plate was then removed and equilibrated to room temperature (25° C.) along with the CellTiter-Glo® mixing reagent for 10-30 minutes. After centrifugation, 100 μL of the culture medium was carefully aspirated from each well, and 85 μL of CellTiter-Glo® reagent was added. […] The 96-well plate was subsequently placed on a multifunctional microplate reader to record the Luminescence values (RLU). • The inhibition rate was calculated using the following formula: […]
(§1) The IC50 value was determined by fitting the inhibition rate by GraphPad Prism software.

NCI-H69 cells = assay: In vitro cell inhibition assay - NCI-H69 cell proliferation (CellTiter-Glo); settings: Homo sapiens, H69 small cell lung cancer cell proliferation
Experimental: 4. In Vitro Cell Inhibition Assay—NCI-H69 Cell Proliferation
The inhibitory effect of the compounds on cell proliferation was assessed by detecting the number of viable cells using the CellTiter-Glo® reagent. NCI-H69 cells in the logarithmic growth phase were collected and inoculated into transparent bottom 96-well plates at a density 1×10^3 cells per well with 100 μL medium, and incubated at 37° C., 5% CO2 overnight. The compounds were sequentially diluted in a 5-fold concentration gradient with DMSO to obtain 8 different concentrations These were then diluted with RPMI-640 (containing 20% FBS) cell culture medium to obtain the compounds working solution (2×), which was added to the cell supernatant at 100 μL per well. The incubation continued for 7 days at 37° C., 5% CO2. The plate was then removed and equilibrated to room temperature (25° C.) along with the CellTiter-Glo® mixing reagent for 10-30 minutes. After centrifugation at 1200 rpm for 5 minutes, 120 μL of the culture medium was carefully aspirated from each well, and 60 μL of CellTiter-Glo® reagent was added. […] The 96-well plate was subsequently placed on a multifunctional microplate reader to record the Luminescence values (RLU).
(§2) The inhibition rate was calculated using the following formula: […]
as §1

DU145 cells = assay: In vitro cell inhibition assay - DU145 cell proliferation (CellTiter-Glo); settings: Homo sapiens, DU-145, Du145 prostate cancer cell proliferation
Experimental: 5. In Vitro Cell Inhibition Assay—DU145 Cell Proliferation
The inhibitory effect of the compounds on cell proliferation was assessed by detecting the number of viable cells using the CellTiter-Glo® reagent. DU145 cells in the logarithmic growth phase were collected and inoculated into transparent bottom 96-well plates at a density 1×10^3 cells per well with 100 μL medium, and incubated at 37° C., 5% CO2 overnight. The compounds were sequentially diluted in a 5-fold concentration gradient with DMSO to obtain 8 different concentrations. These were then diluted with RPMI-640 (containing 10% FBS) cell culture medium to obtain the compound working solution (2×), which was added to the cell supernatant at 100 μL per well. The incubation continued for 6 days at 37° C., 5% CO2. The plate was then removed and equilibrated at room temperature (25° C.) along with the CellTiter-Glo® mixing reagent for 10-30 minutes. After centrifugation, 120 μL of the culture medium was carefully aspirated from each well, and 60 μL of CellTiter-Glo® reagent was added. […] The 96-well plate was subsequently placed on a multifunctional microplate reader to record the Luminescence values (RLU).
as §2, §1

`O=C(CCCCCCC(=O)Nc1ccccc1)NO` [SAHA, Vorinostat, reference compound] gave an IC50 (NCI-H1417 cells) of 710 nM, an IC50 (NCI-H69 cells) of 473 nM and an IC50 (DU145 cells) of 1350 nM.
